From paper PMC10967246 come the findings set out here.

For this assay, the target named is TTP1 without transit peptide, split-ubiquitin yeast two-hybrid fusion (Arabidopsis). The experiment in a line: two-hybrid; split-ubiquitin yeast two-hybrid; proteins without transit peptide; bait vector pDHB1MCS2, prey vector met25pXCgate; selection without histidine, uracil, leucine and tryptophan, 20 mM 3-aminotriazole, 3 d at 30 °C.

No constants are given. Whether binding was seen depends on the method and setting. Tags and fused reporters may be left off the sequences shown.

B1: FLU without transit peptide, split-ubiquitin yeast two-hybrid fusion (protein, UniProt Q940U6 27-316)
chain: APEIGKFATSIGYSVVRKPGDHPPFSKIIHSSSQPKERQGKGILQTPFASVGSLDKFSAFEGIGRLKLPVMAVLLTNSLQMATPLEALAAEICEPESSMFSMPILLLVALIGATVGGLLARQRKGELQRLNEQLRQINAALRRQAKIESYAPSLSYAPVGARIPDSEIIVEPKKQELISKLKTGKTFLRNQEPEKAYTEFKIALELAQSLKDPTEEKKAARGLGASLQRQGKYREAIQYHSMVLAISKRESEDSGITEAYGAIADCYTELGDLEKAGKFYDTYIARLETD
Regarding B1, the binding result is listed as “no binding”.
